The source of these data is patent US9475843B2 (Zhejiang University, priority 2015, dated 2016).

Strings that start with PEPTIDE1 are HELM notation: dots part the residues, brackets hold end groups and non-standard residues.

This data set in a line: peptide synthesis. The conditions noted are these: whole synthesis.

As for “PEPTIDE1{V.K.F.F.R.K.L.K.K.S.V.K.E.K.I.G.K.E.F.K.R}$$$$V2.0”, the “final HPLC purity” value is reported as “higher than 95%”.
